Results deposited as PubChem BioAssay AID504784 (Drosophila RNAi Screening Center, 2011)
Purpose: 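Genome-wide knock-down for genes giving too much or too little stored lipid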 (primary screen). System: Drosophila Kc167 embryonic cells. Reagent: long dsRNA against Drosophila genes, about 250 ng dsRNA per well. Duration: 4 days. Conditions: cells fed 400 µM oleic acid bound to BSA. Measurement: 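Cells imaged and segmented; ratio of lipid droplet area to nuclear area, log-transformed, then normalised as a B-score over the screen; higher means more stored lipid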. Direction: droplet/nuclear area B-score: higher = more stored lipid (overstorage).
The deposit covers about 17,000 reagents; below is a random part of those with a known target gene and a result. 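Each column is one replicate's B-score; the combined score over replicates was not deposited, so single values may mislead.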 The numbers tell different reagents against one gene apart. A plus sign joins genes that one reagent is predicted to hit.

After knock-down of Fatp (retired record) the results were droplet/nuclear area B-score, replicate 1 = -0.506; droplet/nuclear area B-score, replicate 2 = -0.527.
After knock-down of Nup160 + RfC38 the results were droplet/nuclear area B-score, replicate 1 = -1.84; droplet/nuclear area B-score, replicate 2 = -0.843.
E(spl)m6-BFM (Enhancer of split m6, Bearded family member) gave droplet/nuclear area B-score, replicate 1 = -0.152; droplet/nuclear area B-score, replicate 2 = -0.961.
Depletion of ArfGAP1 (ADP-ribosylation factor GTPase activating protein 1) gave: droplet/nuclear area B-score, replicate 1 = -1.06; droplet/nuclear area B-score, replicate 2 = -0.0105.
Silencing of gsb (gooseberry) gave: droplet/nuclear area B-score, replicate 1 = -0.0246; droplet/nuclear area B-score, replicate 2 = -1.5.
After knock-down of ich (ichor), the record shows droplet/nuclear area B-score, replicate 1 = 1.9; droplet/nuclear area B-score, replicate 2 = -0.987.
CG33160 showed droplet/nuclear area B-score, replicate 1 = 0.885; droplet/nuclear area B-score, replicate 2 = 0.552.
For cass (cassowary) the deposit lists droplet/nuclear area B-score, replicate 1 = -1.74; droplet/nuclear area B-score, replicate 2 = -3.14.
After knock-down of CG8051 the results were droplet/nuclear area B-score, replicate 1 = -0.596; droplet/nuclear area B-score, replicate 2 = 0.167.
After knock-down of Tsp26A (Tetraspanin 26A), the record shows droplet/nuclear area B-score, replicate 1 = -1.9; droplet/nuclear area B-score, replicate 2 = -0.355.
After knock-down of cl (clot), the record shows droplet/nuclear area B-score, replicate 1 = 0.0329; droplet/nuclear area B-score, replicate 2 = -0.37.
Hsdl2 (Hydroxysteroid dehydrogenase like 2) showed droplet/nuclear area B-score, replicate 1 = 1.02.

Part of the list above, reformatted.
gene,reagent no.,"droplet/nuclear area B-score, replicate 1","droplet/nuclear area B-score, replicate 2"
CG33160,1,0.885,0.552
cass (cassowary),1,-1.74,-3.14

The results go on.
For ZnT86D (Zinc transporter 86D) the deposit lists droplet/nuclear area B-score, replicate 1 = -0.308; droplet/nuclear area B-score, replicate 2 = 1.54.
pasi2 (pasiflora 2) gave droplet/nuclear area B-score, replicate 1 = -0.522; droplet/nuclear area B-score, replicate 2 = -1.35.
CG30380 gave droplet/nuclear area B-score, replicate 1 = -1.7; droplet/nuclear area B-score, replicate 2 = 0.43.
With knock-down of l(3)87Df (lethal (3) 87Df), the screen gave droplet/nuclear area B-score, replicate 1 = -0.941; droplet/nuclear area B-score, replicate 2 = 0.873.
After knock-down of HP6 (Heterochromatin protein 6), the screen gave droplet/nuclear area B-score, replicate 1 = 0.218; droplet/nuclear area B-score, replicate 2 = 0.014.
After knock-down of CG30203 the results were droplet/nuclear area B-score, replicate 1 = -0.592; droplet/nuclear area B-score, replicate 2 = 0.552.
cno (canoe) #1 showed droplet/nuclear area B-score, replicate 1 = -1.37; droplet/nuclear area B-score, replicate 2 = 1.29.
For cno (canoe) #2, the values are droplet/nuclear area B-score, replicate 1 = 2.18.
Depletion of cno (canoe) #3 resulted in: droplet/nuclear area B-score, replicate 1 = 2.12; droplet/nuclear area B-score, replicate 2 = 2.86.
Knock-down of Orct2 (Organic cation transporter 2) gave: droplet/nuclear area B-score, replicate 1 = -0.376; droplet/nuclear area B-score, replicate 2 = 0.963.
CG14759 scored droplet/nuclear area B-score, replicate 1 = -0.654; droplet/nuclear area B-score, replicate 2 = -0.0166.
After knock-down of TwdlJ (TweedleJ) the results were droplet/nuclear area B-score, replicate 1 = 1.73; droplet/nuclear area B-score, replicate 2 = 0.0741.
CG14109 showed droplet/nuclear area B-score, replicate 1 = -0.00453; droplet/nuclear area B-score, replicate 2 = -1.08.
spg (sponge) #1 scored droplet/nuclear area B-score, replicate 1 = -2.51; droplet/nuclear area B-score, replicate 2 = 2.15.
Against spg (sponge) #2, the entry reads droplet/nuclear area B-score, replicate 1 = 0.455; droplet/nuclear area B-score, replicate 2 = -0.673.
